# Screening data, single-dose tests

Protein sequences, listed by entry. Tags and fused reporters are not part of them. Residues count along the entry.
UniProt A4I591, 1-473: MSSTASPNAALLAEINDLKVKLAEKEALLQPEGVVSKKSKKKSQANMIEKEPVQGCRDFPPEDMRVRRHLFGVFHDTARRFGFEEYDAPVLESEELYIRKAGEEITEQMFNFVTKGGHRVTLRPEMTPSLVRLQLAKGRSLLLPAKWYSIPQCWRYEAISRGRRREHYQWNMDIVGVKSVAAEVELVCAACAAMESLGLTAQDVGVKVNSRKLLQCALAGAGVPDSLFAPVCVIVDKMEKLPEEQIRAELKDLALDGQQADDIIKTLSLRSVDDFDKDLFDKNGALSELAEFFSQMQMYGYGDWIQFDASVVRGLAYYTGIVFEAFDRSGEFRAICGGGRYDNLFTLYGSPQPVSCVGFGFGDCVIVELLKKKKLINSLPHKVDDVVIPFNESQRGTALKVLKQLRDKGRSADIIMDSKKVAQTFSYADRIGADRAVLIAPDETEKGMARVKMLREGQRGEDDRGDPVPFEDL

Source: ChEMBL document CHEMBL3988442, “University of Dundee, Small-Polar-MMV Screening Library” (2021).

A: 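Histidine-tRNA ligase, Leishmania infantum (UniProt A4I591). Enzyme assay of histidyl-tRNA synthetase; the read-out is not stated. Tested at 30 µM. Higher reads as stronger inhibition (inferred: compounds with an IC50 in retests scored well above the rest). The assay is labelled LdHisRS but filed under L. infantum. About 69,000 compounds were tested under these conditions; 0.6% (about 410) showed 50% or more at least once.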
B: 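Assay of Toxoplasma gondii numbers, read through their beta-galactosidase reporter with a colour substrate. Tested at 10 µM. Higher reads as fewer parasites (inferred from which compounds were picked for retests). Size under these conditions: about 67,000 compounds, about 260 of them at 50% or above in at least one test.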

The filed quantity is “Percent Effect” (%). How 0% and 100% were set is not recorded. Most values in the screen are low, and negative values occur. The compounds are a random part of those screened.

- Cc1cc(C(F)(F)F)c2c(=O)n(Cc3cc(C)on3)n(C)c2n1 | A: 11.5%; B: 3.159%
- CCc1nc(C2CCCN(C(=O)c3cnn(CC)c3)C2)no1 (stereo not given) | A: 0%; B: 0.3519%
- COCC1COCCC12CCN(C(=O)COc1ccccc1)CC2 (stereo not given) | A: 7.692%; B: -1.438%
- Cc1occc(=O)c1OCc1noc(C(=O)NCC2CC2)n1 | A: 13.04%; B: 4.894%
- CCN1CCCC(O)(c2nc(C)c(CCOc3ccccc3F)s2)CC1 (stereo not given) | A: 8.966%; B: 12.54%
- CC(=O)N1CCC[C@@H](NCc2cccc(F)c2)[C@@H]1c1ccc(C)s1.Cl | B: -10.86%
- Cc1nc(C)n(CC2CN(Cc3ccccc3C#N)CCO2)n1 (stereo not given) | A: 9.649%; B: 0.6864%
- Cn1cc(CN2C[C@@H](NC(=O)c3cscn3)[C@H]3OCCC[C@H]32)cn1 | A: 25.71%
- CN(Cc1ccc(Cl)c(F)c1)C(=O)c1ccncc1F | A: 5.128%; B: 2.574%
- Cc1ccc(CN2C[C@@H]3CN(CC4CCOCC4)CCO[C@@H]3C2)s1 | A: 18.97%
- CCCc1nc(N2CCCN(c3ccncc3)CC2)c2cnn(C)c2n1 | A: 14.75%; B: 0.9107%
- OCCOc1ccc(NCc2cccc3[nH]ccc23)cn1 | A: 15%; B: 5.516%
- CCc1ccc(CN2CCc3[nH]nc(C(=O)N4CCNC(=O)C4)c3C2)o1 | A: 13.79%; B: -5.124%
- O=C(O)C(F)(F)F.[H][C@@]12OCCN(C(=O)c3cscn3)[C@@]1([H])CC[C@@H]2Oc1ccccn1 | B: -8.905%
- CCc1nc(CN(C)CC(=O)NC(C)C)cs1 | A: 5.435%; B: 5.256%
- Cc1ncc(CN2CCc3c(nc4cc(C5CC5)nn4c3O)C2)n1C | A: 2.837%; B: -8.521%
- COCC[C@]1(O)CCN(C(=O)CCc2cnn(C)c2)C[C@H]1C | A: 13.7%; B: 5.196%
- Fc1ccc(NC2CCCN(Cc3ccncc3)C2)cc1 (stereo not given) | A: 2.5%; B: -17.15%
- [H][C@]12CC[C@]([H])(CN(C3Cc4ccccc4C3)C1)N(C(=O)N(C)C)C2 | B: 9.217%
- CCN(Cc1ccoc1)C(=O)c1cc(C)c(C)c(S(N)(=O)=O)c1 | A: 2.941%; B: -10.63%
- CCc1nnc(N2C[C@@H](NC(C)=O)[C@H](c3ccc(C)o3)C2)s1 | A: 23.4%; B: -6.409%
- Cn1cc(C2(C)CN(c3ncccc3C#N)CCO2)cn1 (stereo not given) | A: 6.14%; B: 0.6952%
- Cc1cc(N(C)Cc2snnc2C)nc(-c2cccnc2)n1 | A: 20.97%; B: -6.151%
- Cc1cccnc1N1CCN(C(=O)CCc2cn3ccccc3n2)CC1 | A: -4.301%; B: -7.214%
- CN(CC(=O)Nc1cccc(F)c1)Cc1nc(N)nc(N(C)C)n1 | A: 10.64%; B: -14.95%
- O=C(N1CCCC1)N1Cc2nccn2CC(COc2cccnc2)C1.O=C(O)C(F)(F)F (stereo not given) | B: 19.09%
- CS(=O)(=O)NCc1cc(-c2cc(F)cc(F)c2)nc(N2CCOCC2)n1 | A: 20%; B: 7.923%
- CC(C)n1cc(N2CC(C(=O)N3CCc4ccccc4C3)CC2=O)cn1 (stereo not given) | A: -155.2%; B: 15.2%
- O=c1cc(CN2CCCC2)nc2n1CCCN(Cc1ccsc1)C2 | A: 13.59%; B: -7.531%
- O=C(COc1cccc2c1CCC2=O)NCc1ccccc1Cl | A: 15.18%; B: 2.326%
- CC(=O)N1CC(=O)N(c2ccsc2)CC12CCN(Cc1ccccn1)C2 (stereo not given) | A: 31.43%
- Cc1cc(C)cc(CN2C[C@@H]3OCCN(S(=O)(=O)N(C)C)[C@@H]3C2)c1 | A: 12.28%

Some entries from above, unchanged:

* COCC1COCCC12CCN(C(=O)COc1ccccc1)CC2 (stereo not given) : A: 7.692%; B: -1.438%
* O=C(N1CCCC1)N1Cc2nccn2CC(COc2cccnc2)C1.O=C(O)C(F)(F)F (stereo not given) : B: 19.09%